Test results: the supplement of paper PMC7024190
Structures can show the parent of a compound that is named as a salt. Some of the results follow. Repeats in this data set agree poorly, so a single value says little.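 A first-round screen of about ten thousand compounds sought those raising reporter output, using human embryonic kidney cells briefly transfected with a plasmid carrying a Renilla luciferase gene driven by the HSV-TK promoter.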

What follows are compounds tested on HEK 293FT (assay: log relative Renilla luciferase luminescence (reporter expression vs reference, reference not stated) (log (base not stated)); higher = higher recombinant reporter expression). Details: 10 µM; time after transfection 48 h.

Row | Compound | log
1 | COc1ccc(-c2ccc(=N)n(CCCC(=O)O)n2)cc1 [Gabazine bromide] | 0.0464
2 | CC(C)(S)[C@@H](N)C(=O)O [Penicillamine] | 0.188
3 | Cn1c(=O)c2c(ncn2CC(=O)O)n(C)c1=O [Acefylline] | 0.111
4 | CN(C)CC/C=C1\c2ccccc2CSc2ccccc21 [Dosulepin hydrochloride] | 0.0769
5 | CC(C)(Oc1ccc(Cl)cc1)C(=O)O [Clofibric acid] | 0.0523
6 | Cn1c(=O)c2[nH]cnc2n(C)c1=O [Aminophylline] | -0.119
7 | CS(=O)(=O)c1ccc(C2=C(c3ccccc3)C(=O)OC2)cc1 [Rofecoxib] | -0.0407
8 | Cc1[nH]c(=O)c(C#N)cc1-c1ccncc1 [Milrinone] | 0.093
9 | CN(C)CCC=C1c2ccccc2CCc2ccccc21 [Amitryptiline hydrochloride] | 0.23
10 | C[C@]12CC[C@H]3C(=CCc4cc(O)ccc43)[C@@H]1CCC2=O [Equilin] | -0.875
11 | C=C[C@H]1CN2CC[C@H]1C[C@@H]2[C@@H](O)c1ccnc2ccc(OC)cc12 [Quinidine hydrochloride monohydrate] | 0.00284
12 | Cc1cccc(C)c1NC(=O)C1CCCCN1C (stereo not given) [Mepivacaine hydrochloride] | 0.0769
13 | Cc1ncc([N+](=O)[O-])n1CC(O)CCl (stereo not given) [Ornidazole] | 0.0554
14 | CN1C(C(=O)Nc2ccccn2)=C(O)c2sccc2S1(=O)=O [Tenoxicam] | 0.0806
15 | CCCCC(CC)CN1CN(CC(CC)CCCC)CC(C)(N)C1 (stereo not given) [Hexetidine] | 0.0967
16 | O=C(CCCN1CCC(O)(c2ccc(Br)cc2)CC1)c1ccc(F)cc1 [Bromperidol] | -0.0946
17 | CC(=O)c1ccc2c(c1)N(CCCN1CCC(CCO)CC1)c1ccccc1S2 [Piperacetazine] | 0.106
18 | CO[C@@]1(NC(=O)Cc2cccs2)C(=O)N2C(C(=O)O)=C(COC(N)=O)CS[C@@H]21 [Cefoxitin sodium salt] | -0.162
19 | COc1cc(Cc2cnc(N)nc2N)cc(OC)c1OC [Trimethoprim] | 0.109
20 | CCN(CC)CCOC(=O)C(c1ccccc1)C1CCCCC1 (stereo not given) [Drofenine hydrochloride] | 0.125
21 | CC[C@H]1OC(=O)[C@H](C)[C@@H](O[C@H]2C[C@@](C)(OC)[C@@H](O)[C@H](C)O2)[C@H](C)[C@@H](O[C@@H]2O[C@H](C)C[C@H](N(C)C)[C@H]2O)[C@](C)(OC)C[C@@H](C)C(=O)[C@H](C)[C@@H](O)[C@]1(C)O [Clarithromycin] | 0.0542
22 | CCOc1ccccc1OCC1CNCCO1 (stereo not given) [Viloxazine hydrochloride] | -0.324
23 | CCCCOC(=O)c1ccc(N)cc1 [Butamben] | 0.0286
24 | N=C(N)NC(=O)c1nc(Cl)c(N)nc1N [Amiloride hydrochloride dihydrate] | -0.0656
25 | O=C1NCN(c2ccccc2)C12CCN(CCCC(c1ccc(F)cc1)c1ccc(F)cc1)CC2 [Fluspirilen] | 0.086

A different layout for 2 compounds above.
Row	Compound	log
3	Cn1c(=O)c2c(ncn2CC(=O)O)n(C)c1=O [Acefylline]	0.111
4	CN(C)CC/C=C1\c2ccccc2CSc2ccccc21 [Dosulepin hydrochloride]	0.0769

The results go on:

Row | Compound | log
26 | CC(C)(C)C(=O)OCOC(=O)[C@@H]1N2C(=O)[C@@H](NC(=O)[C@H](N)c3ccccc3)[C@H]2SC1(C)C [Pivampicillin] | 0.0303
27 | COc1cc(C(=O)NS(=O)(=O)c2ccccc2C)ccc1Cc1cn(C)c2ccc(NC(=O)OC3CCCC3)cc12 [Zafirlukast] | 0.0583
28 | Cc1cc(C2CCCCC2)n(O)c(=O)c1 [Ciclopirox ethanolamine] | -0.41
29 | NS(=O)(=O)c1cc(C(=O)O)c(NCc2ccco2)cc1Cl [Furosemide] | -0.0275
30 | CCOc1ccc2c(c1)C(C)=CC(C)(C)N2 [Ethoxyquin] | -0.0194
31 | CCOC(=O)[C@H](CCc1ccccc1)N[C@@H](C)C(=O)N1[C@H](C(=O)O)C[C@@H]2CCC[C@@H]21 [Ramipril] | 0.228
32 | NC(=O)c1ncn([C@@H]2O[C@H](CO)[C@@H](O)[C@H]2O)n1 [Ribavirin] | 0.0115
33 | CC(C)COCC(CN(Cc1ccccc1)c1ccccc1)N1CCCC1 (stereo not given) [Bepridil hydrochloride] | 0.0781
34 | CNS(=O)(=O)Cc1ccc2[nH]cc(CCN(C)C)c2c1 [Sumatriptan succinate] | 0.206
35 | CN[C@H](CC(C)C)C(=O)N[C@H]1C(=O)N[C@@H](CC(N)=O)C(=O)N[C@H]2C(=O)N[C@H]3C(=O)N[C@H](C(=O)N[C@H](C(=O)O)c4cc(O)cc(O)c4-c4cc3ccc4O)[C@H](O)c3ccc(c(Cl)c3)Oc3cc2cc(c3O[C@@H]2O[C@H](CO)[C@@H](O)[C@H](O)[C@H]2O[C@H]2C[C@](C)(N)[C@H](O)[C@H](C)O2)Oc2ccc(cc2Cl)[C@H]1O [Vancomycin hydrochloride] | -0.0312
36 | NS(=O)(=O)c1cc2c(cc1Cl)N=CNS2(=O)=O [Chlorothiazide] | 0.0157
37 | O=S(=O)(O)CCS [Mesna] | 0.0221
38 | CCn1cc(C(=O)O)c(=O)c2cnc(N3CCCC3)nc21 [Piromidic acid] | -0.179
39 | CC(C)(C)NC[C@H](O)c1ccc(O)c(CO)c1 [Levalbuterol hydrochloride] | 0.0377
40 | O=C(O)c1cc(-c2ccc(F)cc2F)ccc1O [Diflunisal] | 0.0344
41 | CCCCNC(=O)NS(=O)(=O)c1ccc(C)cc1 [Tolbutamide] | 0.149
42 | CC(=O)[C@H]1CC[C@H]2[C@@H]3C[C@H](C)C4=CC(=O)CC[C@]4(C)[C@H]3[C@@H](O)C[C@]12C [Medrysone] | -0.0596
43 | CC(=O)OCC(=O)[C@@]12N=C(C)O[C@@H]1C[C@H]1[C@@H]3CCC4=CC(=O)C=C[C@]4(C)[C@H]3[C@@H](O)C[C@@]12C [Deflazacort] | -0.145
44 | O=C(O)Cc1sc(-c2ccccc2)nc1-c1ccc(Cl)cc1 [Fentiazac] | -0.777
45 | OCc1cc(C(O)CNCCCCCCOCCCCc2ccccc2)ccc1O (stereo not given) [Salmeterol] | 0.0115
46 | CNCCC(Oc1ccc(C(F)(F)F)cc1)c1ccccc1 (stereo not given) [Fluoxetine hydrochloride] | 0.131
47 | Cc1nc2n(c(=O)c1CCN1CCC(c3noc4cc(F)ccc34)CC1)CCCC2 [Risperidone] | -0.0974
48 | CCCCOc1cc(C(=O)NCCN(CC)CC)c2ccccc2n1 [Dibucaine] | 0.224
49 | O=P(O)(O)C(Cl)(Cl)P(=O)(O)O [Clodronate] | 0.114
50 | O=C1CCc2cc(OCCCCc3nnnn3C3CCCCC3)ccc2N1 [Cilostazol] | -0.13

A draw from above in order of formula weight, rising.
Row | Compound | log
37 | O=S(=O)(O)CCS [Mesna] | 0.0221
42 | CC(=O)[C@H]1CC[C@H]2[C@@H]3C[C@H](C)C4=CC(=O)CC[C@]4(C)[C@H]3[C@@H](O)C[C@]12C [Medrysone] | -0.0596
33 | CC(C)COCC(CN(Cc1ccccc1)c1ccccc1)N1CCCC1 (stereo not given) [Bepridil hydrochloride] | 0.0781

Next records

Row | Compound | log
51 | CCS(=O)(=O)CCn1c([N+](=O)[O-])cnc1C [Tinidazole] | -0.105
52 | CCC1=C(C)CN(C(=O)NCCc2ccc(S(=O)(=O)NC(=O)N[C@H]3CC[C@H](C)CC3)cc2)C1=O [Glimepiride] | 0.0638
53 | CC1(C)NC(=O)N(c2ccc([N+](=O)[O-])c(C(F)(F)F)c2)C1=O [Nilutamide] | -0.0456
54 | COC(=O)[C@@H]1[C@H]2C[C@H]3c4[nH]c5ccccc5c4CCN3C[C@@H]2CC[C@@H]1O [Yohimbine hydrochloride] | -0.0275
55 | CCCCC(CC)CNC(=N)NC(=N)NCCCCCCNC(=N)NC(=N)NCC(CC)CCCC (stereo not given) [Alexidine dihydrochloride] | -1.39
56 | Nc1nc(=O)c2c([nH]1)NC[C@@H](CNc1ccc(C(=O)N[C@@H](CCC(=O)O)C(=O)O)cc1)N2C=O [Folinic acid calcium salt] | -0.268
57 | COc1ccc2cc([C@@H](C)C(=O)O)ccc2c1 [(R) -Naproxen sodium salt] | -0.0528
58 | CCOC(=O)C1=C[C@]2(CC)CCCN3CCc4c(n1c1ccccc41)[C@@H]32 [Vinpocetine] | 0.0503
59 | Cc1cccc(CN2CCN(C(c3ccccc3)c3ccc(Cl)cc3)CC2)c1 (stereo not given) [Meclozine dihydrochloride] | -0.0681
60 | COc1cnc(NS(=O)(=O)c2ccc(N)cc2)nc1 [Sulfameter] | 0.149
61 | O=C(O)CCC(=O)Nc1ccc(S(=O)(=O)Nc2nccs2)cc1 [Succinylsulfathiazole] | 0.142
62 | COc1ccccc1O [Guaiacol] | 0.0581
63 | CNCCC(Oc1ccccc1OC)c1ccccc1 (stereo not given) [Nisoxetine hydrochloride] | 0.1
64 | CCCCC(C)(O)C/C=C/[C@H]1[C@H](O)CC(=O)[C@@H]1CCCCCCC(=O)OC (mixture of isomers) [Misoprostol] | 0.093
65 | CC(=O)N(CC(C)C(=O)O)c1c(I)cc(I)c(N)c1I (stereo not given) [Iocetamic acid] | -0.217
66 | CN(C)[C@@H]1C(O)=C(C(N)=O)C(=O)[C@@]2(O)C(O)=C3C(=O)c4c(O)ccc(Cl)c4[C@@](C)(O)[C@H]3C[C@@H]12 [Chlortetracycline hydrochloride] | 0.089
67 | C[C@]12CC[C@@H]3c4ccc(O)cc4CC[C@H]3[C@@H]1CCC2=O [Estrone] | -0.147
68 | CC1CS(=O)(=O)CCN1/N=C/c1ccc([N+](=O)[O-])o1 (stereo not given) [Nifurtimox] | -0.048
69 | CN1CC2c3ccccc3Oc3ccc(Cl)cc3C2C1 (stereo not given) [Asenapine maleate] | 0.097
70 | c1ccc2[nH]c(-c3cscn3)nc2c1 [Tiabendazole] | 0.0503
71 | CCCCCCCN(CC)CCCC(O)c1ccc(NS(C)(=O)=O)cc1 (stereo not given) [Ibutilide fumarate] | 0.233
72 | COc1ccc(-c2cc(=O)c3c(O)cc(O[C@@H]4O[C@H](CO[C@@H]5O[C@@H](C)[C@H](O)[C@@H](O)[C@H]5O)[C@@H](O)[C@H](O)[C@H]4O)cc3o2)cc1O [Diosmin] | -0.0473
73 | C[C@]12CC[C@@H]3c4ccc(O)cc4CC[C@H]3[C@@H]1C[C@@H](O)[C@@H]2O [Estriol] | 0.138
74 | CN(C)CCCO[C@@H]1[C@H]2OC(C)(C)O[C@H]2O[C@@H]1[C@H](O)CO [Amiprilose hydrochloride] | -0.0476
75 | CC[N+](CC)(CC)CCC(O)(c1ccccc1)C1CCCCC1 (stereo not given) [Tridihexethyl chloride] | -0.04
